Assay results from PubChem BioAssay AID2551 (National Center for Advancing Translational Sciences (NCATS), 2010).
The campaign covered roughly 310,000 compounds. About 17,000 (5.5%) were called active. This list was built around the results that the source calls inconclusive (neither active nor inactive); the mix of calls is not that of the screen. Calls follow the shape of the dose curve; as a rule, active = well fitted inhibition curve with a large enough effect; inconclusive = small, poorly fitted or top-dose-only effect, or effect the other way; inactive = no such curve, though single readings can be large or run the other way. A potency beside an inconclusive call is a rough fit, not a confirmed value.
% is scaled to controls: 0 for no effect and ±100 for the full control effect; potency is read from the fitted curve at half-maximal effect.
Also: nearly all actives have a fitted effect of over 60% in size.

Chains of the proteins cited; added tags and fusions are not shown. Lines headed by an entry give the natural chain unless they say otherwise; changes in a name come on top.
UniProt P51450: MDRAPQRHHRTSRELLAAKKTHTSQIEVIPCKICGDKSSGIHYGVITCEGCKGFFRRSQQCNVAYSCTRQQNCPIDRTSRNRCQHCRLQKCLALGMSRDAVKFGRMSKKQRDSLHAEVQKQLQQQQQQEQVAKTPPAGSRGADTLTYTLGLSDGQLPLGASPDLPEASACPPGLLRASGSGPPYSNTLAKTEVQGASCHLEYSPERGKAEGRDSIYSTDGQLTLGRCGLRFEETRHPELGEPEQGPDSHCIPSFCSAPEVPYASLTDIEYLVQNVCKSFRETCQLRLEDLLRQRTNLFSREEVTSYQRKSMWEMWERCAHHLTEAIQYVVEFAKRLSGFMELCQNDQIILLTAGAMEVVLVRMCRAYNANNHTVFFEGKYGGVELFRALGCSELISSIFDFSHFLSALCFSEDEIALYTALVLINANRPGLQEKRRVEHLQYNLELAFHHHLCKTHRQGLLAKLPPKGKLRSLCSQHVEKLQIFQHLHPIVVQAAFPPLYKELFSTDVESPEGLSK

What follows are molecules tested against Nuclear receptor ROR-gamma (Mus musculus) (UniProt P51450) (assay: qHTS for inhibitors of ROR gamma transcriptional activity). Details: Drosophila S2 Gal4-RORgamma UAS-luciferase reporter, 20 h; activity change, negative = inhibition: at 53.6 µM (top of the series).
Procedure, shortened: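 A Gal4/UAS one-hybrid system in insect cells: metallothionein-promoter Gal4–ROR gamma fusion plus Photinus luciferase reporter. Copper sulfate 700 uM final, 20 hr ambient incubation, luminescent detection after 10 min with reagent.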
In the case of `CCOc1cc(/C=N/NC(=O)COc2ccc(Cl)cc2)ccc1OS(=O)(=O)c1ccccc1`, the Potency is reported as inconclusive: 6.31 µM [inhibitor, single point].
In the case of `O=C(C[n+]1cc(Br)cc2ccccc21)c1ccc(Br)cc1`, the Potency is reported as inconclusive: 31.6 µM [activator, single point].
For `Nc1ccc2c(c1)COc1ccccc1O2`, the Potency was inconclusive: 12.6 µM [activator, single point].
With `C=CCOc1ccn(C)c(=O)n1` the “activity change, negative = inhibition” value was inactive: 1.37%.
In the case of `COC(=O)[C@@]1(Cc2ccc(F)cc2)[C@@H]2[C@@H](CC(=O)[C@H]2CC(=O)C(=O)N2CCCC2)CN1C(=O)c1ccccc1`, the Potency is reported as inconclusive: 22.4 µM [inhibitor, single point].
In the case of `S=C(NCc1ccc2c(c1)OCO2)NCc1ccco1`, the Potency is reported as inconclusive: 35.5 µM [inhibitor, single point].
With `Cc1ccccc1C(=O)Nc1nnc(-c2ccncc2)o1` the Potency was active: 2.82 µM.
`O=C(NCC(=O)N(Cc1ccccc1)C(C(=O)NC1CCCC1)c1ccncc1)c1ccco1` (stereo not drawn) was tested, and the Potency was inconclusive: 1.41 µM [activator, partial curve].
In the case of `COc1ccc(-c2cc(C(F)(F)F)n3ncc(C(=O)NCC4CCCO4)c3n2)cc1` (stereo not drawn), the activity change, negative = inhibition is reported as inactive: 6.17% [at 0.365 µM].
With `Cc1c(C(=O)NC2=NCCS2)oc2ccccc12` the Potency was inconclusive: 0.1 µM [activator, single point].
`O=C1CC(C(=O)Nc2ccccc2)S/C(=N\NC(=O)c2ccccc2Cl)N1` (stereo not drawn) was tested, and the Potency was active: 3.16 µM.
For `S=C(NCC1CCCO1)NC1CCCC1` (stereo not drawn), the Potency was active: 12.6 µM.
`COCCCN1C(=O)c2[nH]nc(-c3ccccc3O)c2C1c1cccc(Cl)c1` (stereo not drawn) was tested, and the Potency was inconclusive: 20 µM [inhibitor, single point].
For `CC(=O)Nc1cccc(OCC(=O)NC(C)c2ccc3ccccc3c2)c1` (stereo not drawn), the “activity change, negative = inhibition” value was inactive: 10.3%.
In the case of `O=[N+]([O-])c1cccc(/C=C/c2nc3ccc([N+](=O)[O-])cc3[nH]2)c1`, the Potency is reported as inconclusive: 8.91 µM [activator, partial curve].
For `Cc1cc(NC(=O)CN(C)S(=O)(=O)c2cccc(Cl)c2)no1`, the Potency was inconclusive: 7.08 µM [activator, partial curve].
`N=c1n(Cc2ccccc2)c2ccccc2n1CC(O)COc1ccc(Cl)cc1Cl` (stereo not drawn) was tested, and the Potency was inconclusive: 35.5 µM [inhibitor, single point].
With `CCOC(=O)N1CCN(C(=O)/C=C/c2ccc(C(C)(C)C)cc2)CC1` the Potency was inconclusive: 11.2 µM [activator, partial curve].
`Cc1cccc(C(=O)Nc2nnc(C3=COCCO3)o2)c1` was tested, and the Potency was active: 0.501 µM.
For `COc1cccc([C@@H]2Oc3ccc(Br)cc3C[C@H]2OC(=O)Nc2cc(OC)c(OC)c(OC)c2)c1`, the “activity change, negative = inhibition” value was inactive: 8.22%.
For `CC(C)N(C(=O)NC(=O)Nc1ccccn1)S(C)(=O)=O`, the activity change, negative = inhibition was inactive: -2.67% [at 10 µM].
With `CN(C)c1ccc(/C=N/NC(=O)Cn2nnc3ccccc32)cc1` the “activity change, negative = inhibition” value was inactive: 20.4%.
In the case of `CCOc1ccc2nc(N/C(N)=N/C(=S)Nc3ccc(C)c(C)c3)nc(C)c2c1`, the Potency is reported as active: 1.78 µM.
With `COC(=O)C1=C(C)NC(=O)/C1=C\c1cc(C)n(-c2cc(C)cc(C)c2)c1C` the “activity change, negative = inhibition” value was inactive: -15.1%.
In the case of `Cc1ccc(F)c(NC(=O)/C(C#N)=C(\O)c2ccc(C(C)(C)C)cc2)c1`, the Potency is reported as inconclusive: 3.55 µM [activator, partial curve].
`CC(C)C(O)(C(=O)NNc1ccccc1)C(C)C` was tested, and the “activity change, negative = inhibition” value was inactive: 0.883%.
With `COc1ccccc1C(=O)C1CCCN(C(=O)c2cn3cc(Cl)ccc3n2)C1` (stereo not drawn) the Potency was inconclusive: 17.8 µM [inhibitor, single point].
For `c1ccc(-c2cc(-c3nn4c(-c5ccco5)nnc4s3)c3ccccc3n2)cc1`, the Potency was inconclusive: 22.4 µM [inhibitor, single point].
`Nn1cnnc1N/N=C/c1ccc(F)cc1` was tested, and the Potency was inconclusive: 12.6 µM [inhibitor, partial curve, poor fit].
In the case of `CC(C)Cn1c2c(c(O)c(C(=O)Nc3ncccc3O)c1=O)CCCC2`, the Potency is reported as inconclusive: 15.8 µM [inhibitor, partial curve, poor fit].
In the case of `CC(C)CC(=O)c1c[nH]c(C(=O)NCc2ccccc2)c1`, the “activity change, negative = inhibition” value is reported as inactive: 3.37%.
In the case of `COc1ccc([C@@H]2[C@@H]3C(=O)N(C(C)(C)C)C(=O)[C@@H]3[C@]3(C)C(=O)N(c4ccc(C(F)(F)F)cc4)C(=O)N23)cc1`, the Potency is reported as inconclusive: 20 µM [activator, partial curve, poor fit].
With `O=S(=O)(NCCNc1ncc(C(F)(F)F)cc1Cl)C(F)(F)F` the Potency was inconclusive: 3.98 µM [activator, partial curve].
`Cc1ccc(NC2=NCC(=O)N2Cc2cccs2)cc1C` was tested, and the Potency was inconclusive: 11.2 µM [activator, partial curve].
With `CN(C)C1=NCCN1CCc1cccc(F)c1` the “activity change, negative = inhibition” value was inactive: 3.04%.
In the case of `CCOc1ccc(NC(=O)CN(C)c2ccc(S(=O)(=O)N(C(C)C)C(C)C)cn2)cc1OCC`, the “activity change, negative = inhibition” value is reported as inactive: -12.2%.
In the case of `O=C(O)/C=C/c1cnn(-c2ccccc2)c1`, the Potency is reported as active: 7.94 µM.
In the case of `COc1ccc(NC(=O)CN(c2ccc([N+](=O)[O-])cc2)S(=O)(=O)c2ccccc2)c(OC)c1`, the “activity change, negative = inhibition” value is reported as inactive: -3.95%.
For `Cc1ccc(-c2nnc3ccc(SCC(=O)N4CCc5ccccc54)nn23)cc1`, the “activity change, negative = inhibition” value was inactive: 2.79%.
In the case of `Cc1ccc(S(=O)(=O)ON2C(=O)c3cccc4cccc(c34)C2=O)cc1`, the Potency is reported as inconclusive: 15.8 µM [activator, single point].
With `COc1ccc(-c2oc3cc(OC)c(OC(C)=O)c(OC)c3c(=O)c2OC)cc1OC(C)=O` the Potency was inconclusive: 14.1 µM [activator, full curve].
With `Cc1cccc(NC(=S)NC2CCCCC2)n1` the Potency was active: 1 µM.
For `O=C(/C=C/c1c(Cl)cccc1Cl)Nc1ccncc1`, the Potency was inconclusive: 3.16 µM [activator, partial curve].
With `CCC(C(=O)Nc1ccncc1)c1ccccc1` (stereo not drawn) the Potency was inconclusive: 35.5 µM [inhibitor, single point].
`Cc1cccc(NC(=O)CC2NCCNC2=O)c1` (stereo not drawn) was tested, and the Potency was inconclusive: 35.5 µM [inhibitor, single point].
`COC(=O)Cc1ccc(NC(=S)N2CCCC(CO)C2)cc1` (stereo not drawn) was tested, and the Potency was active: 11.2 µM.
With `O=C(Cc1ccc(Cl)cc1Cl)Nc1cccc(S(=O)(=O)Nc2ccccc2F)c1` the Potency was inconclusive: 11.2 µM [activator, partial curve].
For `Cc1ccc(Cn2c(=O)c3c(nc4n3CCN4Cc3ccco3)n(C)c2=O)cc1`, the Potency was inconclusive: 11.2 µM [activator, single point].
`CCC1Oc2ccc(C)cc2N(CC(=O)N(Cc2cccnc2)Cc2cccc(F)c2)C1=O` (stereo not drawn) was tested, and the Potency was inconclusive: 0.794 µM [activator, full curve, poor fit].
`COc1ccc(S(=O)(=O)Nc2cc3c4c(oc3c3ccccc23)CC(C)(C)CC4=O)cc1` was tested, and the Potency was inconclusive: 8.91 µM [inhibitor, partial curve].
For `CCOc1ccc(C(=O)Nc2nc(C)c(C(=O)OC)s2)cc1`, the Potency was inconclusive: 0.316 µM [inhibitor, full curve].
With `O=C1C2C3C=CC(C3)C2C(=O)N1c1ccc(N2CCN(c3ccccn3)CC2)c([N+](=O)[O-])c1` (stereo not drawn) the Potency was inconclusive: 35.5 µM [inhibitor, single point].
`O=C(N/N=C/c1ccc2c(c1)OCO2)c1cc(-c2ccccc2Cl)nc2ccccc12` was tested, and the Potency was inconclusive: 25.1 µM [inhibitor, single point].
In the case of `Cc1cc(-c2csc(NC(=O)c3cccc(S(=O)(=O)N(C)C)c3)n2)c(C)n1-c1ccccc1`, the “activity change, negative = inhibition” value is reported as inactive: -8.3%.
`CCOc1ccc(C(=O)c2ccc(OCC)c(N)c2)cc1N` was tested, and the “activity change, negative = inhibition” value was inactive: 0.193%.
For `Cc1ccc(-c2cc(C(=O)NCc3ccco3)no2)cc1`, the Potency was inconclusive: 0.112 µM [activator, full curve, poor fit].
`CC(=O)NCCNc1nc2c(-c3ccccc3)nnn2c2ccccc12` was tested, and the Potency was inconclusive: 12.6 µM [inhibitor, single point].
`Cc1nc(N)sc1N=Nc1ccc(Br)cc1` was tested, and the Potency was inconclusive: 25.1 µM [inhibitor, single point].
For `CCOc1ccc(NC(=O)CCC(=O)c2ccc(Br)cc2)cc1`, the “activity change, negative = inhibition” value was inactive: 0.787%.
With `Cc1ccc(NC(=O)C/C(N)=N/O)cc1Cl` the “activity change, negative = inhibition” value was inactive: 15.1%.
With `CC(=O)c1c(C)nn(CC(O)COc2ccc3c(c2)CCC3)c1C` (stereo not drawn) the Potency was inconclusive: 31.6 µM [activator, single point].
`Cn1cc(S(=O)(=O)N2CCCC2)cc1C(=O)NCc1ccc(Cl)cc1` was tested, and the Potency was inconclusive: 17.8 µM [activator, single point].
For `CCOC(=O)c1c(NC(=S)Nc2ccc(Cl)cc2)sc(C)c1C`, the “activity change, negative = inhibition” value was inactive: -15.8%.
With `N#Cc1c(N)n(-c2cccc(C(=O)O)c2)c2nc3ccccc3nc12` the “activity change, negative = inhibition” value was inactive: 6.51%.
For `CCOc1cc(NC(=S)NC)c(OCC)cc1NC(=O)c1ccc(OC)cc1`, the Potency was active: 10 µM.
In the case of `O=C(CN1c2ccccc2Sc2ccccc21)NNC(=S)Nc1ccc(Cl)cc1Cl`, the Potency is reported as active: 12.6 µM.
With `CC(C)=N/N=C1/NC(=O)C(CC(=O)Nc2cc(Cl)ccc2C)S1` (stereo not drawn) the Potency was active: 11.2 µM.
`CCCCC(=O)NNC(=S)NC(=O)c1ccc([N+](=O)[O-])cc1` was tested, and the Potency was active: 2.51 µM.
With `CCN(CC)c1ccc(/C=N/NC(=O)c2c(Cl)c(C)nn2C)cc1` the Potency was active: 5.62 µM.
For `COC(=O)c1cn[nH]c1NC(=S)Nc1ccc(C)cc1Cl`, the Potency was active: 2.82 µM.
`Cc1noc(/C=C/N(C)C)c1S(=O)(=O)N1CCCC(C(=O)NC2CCCCC2C)C1` (stereo not drawn) was tested, and the “activity change, negative = inhibition” value was inactive: -11.8%.
For `CCN1/C(=C\C=C2\C(=O)N(C)C(=S)N2C)Sc2ccccc21`, the Potency was inconclusive: 35.5 µM [inhibitor, single point].
With `O=C(CCCN1C(=O)CCC1=O)Nc1ccc(Br)cc1F` the Potency was inconclusive: 35.5 µM [inhibitor, single point].
